Results are given in words; binding and its absence hold for the method and conditions named. In cells and extracts the contact can be indirect. Some results given as binding are weak or reduced against the parent protein; the word gives no strength. For some of these results: Tags and fused reporters may be left off the sequences shown.
Assays:
[1] = target: wild-type RNF11 tagged with a V5 epitope (N2A V5-RNF11) (human) (UniProt Q9Y3C5); experiment: co-IP; lysates of N2A cells transduced with V5-RNF11 lentivirus, with or without transfected FLAG-A20; IP with V5, FLAG or Itch antibody; control IP with antibody omitted; immunoblot with anti-A20, Itch and RNF11
[2] = target: T1, endogenous RNF11 (murine primary cortical neurons) (mouse (endogenous in primary cortical neurons)) (UniProt Q9QYK7); experiment: co-IP; lysates of murine primary cortical neurons stimulated with 10 ng/ml TNF-α for 0 or 30 minutes; IP with RNF11 antibody; control IP with antibody omitted; immunoblot with anti-A20 and Itch; densitometry normalised to input, 0 minutes set at 100%
T1 sequence: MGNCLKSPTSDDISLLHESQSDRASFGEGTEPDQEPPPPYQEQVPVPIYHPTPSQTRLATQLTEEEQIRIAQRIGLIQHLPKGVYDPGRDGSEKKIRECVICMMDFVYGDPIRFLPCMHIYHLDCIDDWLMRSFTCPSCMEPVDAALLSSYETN

The chains behind the UniProt entries cited, without tags or fusion partners. Where a name states a change or a piece, a line headed by the entry shows the natural chain unless it says otherwise.
UniProt Q8C863: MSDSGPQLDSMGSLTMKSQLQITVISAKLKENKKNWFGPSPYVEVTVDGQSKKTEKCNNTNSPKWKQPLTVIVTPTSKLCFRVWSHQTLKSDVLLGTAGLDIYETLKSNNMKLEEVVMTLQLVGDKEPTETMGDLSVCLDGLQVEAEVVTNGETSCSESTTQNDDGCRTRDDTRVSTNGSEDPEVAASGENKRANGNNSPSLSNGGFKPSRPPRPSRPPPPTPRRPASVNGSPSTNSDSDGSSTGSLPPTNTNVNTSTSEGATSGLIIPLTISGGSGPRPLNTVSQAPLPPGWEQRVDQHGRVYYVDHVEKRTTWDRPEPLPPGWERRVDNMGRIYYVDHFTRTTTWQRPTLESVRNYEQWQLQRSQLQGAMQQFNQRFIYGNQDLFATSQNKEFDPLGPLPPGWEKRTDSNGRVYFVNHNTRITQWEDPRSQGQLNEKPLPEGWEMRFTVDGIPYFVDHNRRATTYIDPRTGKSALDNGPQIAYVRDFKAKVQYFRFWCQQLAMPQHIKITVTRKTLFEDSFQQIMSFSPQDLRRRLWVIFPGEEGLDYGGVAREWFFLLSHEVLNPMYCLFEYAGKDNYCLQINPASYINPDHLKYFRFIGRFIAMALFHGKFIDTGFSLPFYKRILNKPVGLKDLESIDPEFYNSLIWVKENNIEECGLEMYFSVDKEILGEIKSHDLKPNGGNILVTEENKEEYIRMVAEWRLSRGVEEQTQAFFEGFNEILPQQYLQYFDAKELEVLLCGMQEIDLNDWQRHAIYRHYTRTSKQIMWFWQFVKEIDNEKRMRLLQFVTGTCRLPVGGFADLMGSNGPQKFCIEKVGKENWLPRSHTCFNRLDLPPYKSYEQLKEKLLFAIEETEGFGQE

[3] = target: endogenous Itch (N2A cells) (mouse (endogenous in N2A)) (UniProt Q8C863); experiment: co-IP; lysates of N2A cells transduced with V5-RNF11 lentivirus, with or without transfected FLAG-A20; IP with V5, FLAG or Itch antibody; control IP with antibody omitted; immunoblot with anti-A20, Itch and RNF11
[4] = target: T2, FLAG-tagged A20 (FLAG-A20), in N2A V5-RNF11 cells (UniProt P21580); experiment: as above
T2 sequence: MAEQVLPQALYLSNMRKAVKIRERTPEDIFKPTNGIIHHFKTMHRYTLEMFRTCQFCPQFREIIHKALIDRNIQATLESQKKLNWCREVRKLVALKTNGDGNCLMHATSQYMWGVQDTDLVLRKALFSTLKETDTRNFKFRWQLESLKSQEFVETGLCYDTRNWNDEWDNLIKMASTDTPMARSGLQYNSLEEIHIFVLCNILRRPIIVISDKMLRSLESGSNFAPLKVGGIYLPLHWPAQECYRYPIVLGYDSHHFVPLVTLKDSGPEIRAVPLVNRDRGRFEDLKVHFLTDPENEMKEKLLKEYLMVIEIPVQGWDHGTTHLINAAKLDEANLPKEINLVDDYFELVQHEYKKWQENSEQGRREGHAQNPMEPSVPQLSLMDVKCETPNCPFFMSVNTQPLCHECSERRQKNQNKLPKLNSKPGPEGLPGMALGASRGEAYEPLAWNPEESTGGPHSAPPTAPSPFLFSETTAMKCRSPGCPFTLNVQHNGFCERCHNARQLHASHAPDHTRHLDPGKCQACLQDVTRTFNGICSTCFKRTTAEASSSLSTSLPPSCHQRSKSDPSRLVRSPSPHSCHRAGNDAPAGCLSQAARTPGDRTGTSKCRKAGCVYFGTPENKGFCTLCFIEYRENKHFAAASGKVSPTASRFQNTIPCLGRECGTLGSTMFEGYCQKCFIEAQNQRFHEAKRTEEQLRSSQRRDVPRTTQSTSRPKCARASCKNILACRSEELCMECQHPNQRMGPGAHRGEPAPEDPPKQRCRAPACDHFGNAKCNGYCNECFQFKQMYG

With “endogenous Itch (N2A cells) (from UniProt Q8C863 1-864)” the binding [1] was “binds”.
“endogenous Itch (murine primary cortical neurons) (from UniProt Q8C863 1-864)” was tested, and the binding [2] was “binds”.
In the case of “wild-type RNF11 tagged with a V5 epitope (N2A V5-RNF11) (from UniProt Q9Y3C5 1-154)”, the binding [3] is reported as “binds” and the binding [4] is reported as “binds”.
